Source: PubChem BioAssay AID248 (DTP/NCI, 2004)
The list is a part of this screen's results and no random one: it gathers tests that were run many times, whatever their T/C, doses with no T/C, and many T/C values between a quarter and a half above the control. Other doses and runs of a compound stand elsewhere. T/C gives the treated animals as a percentage of the vehicle group. Some doses have a count of surviving animals in place of a T/C: the source holds a T/C of zero for them, seemingly a mark for toxic or unscored doses. Some survivor counts are full or nearly so, which does not show that the dose was tolerated: survival well below the control is almost never listed, so the zero probably covers shortened survival too. Survivors were counted at the toxicity check, usually on the fifth day, unless a day is given; later deaths do not show. Schedules are NCI's codes, read here as Q, the interval in days (D) or hours (H), X, the number of doses. Some molecules as drawn cover several salts, stereoisomers or complexes of the source; a dose is that of the sample tested. Some entries hold several experiments; the results are listed from low to high. For survival time, the PubChem record calls one and a half times the control and up active, and a quarter to a half above the control has no call in these data; cut-offs in other NCI protocols can differ. Some T/C values carry the count of animals alive at the toxicity check (mostly the fifth day); where none is given, no animal had died by that day.

System: L1210 leukemia ip in BDF1 mice, survival T/C
Assay: NCI In Vivo Anticancer Drug Screen. Data for tumor model L1210 Leukemia (intraperitoneal) in B6D2F1 (BDF1) mice
Conditions: T/C endpoint: mean survival time, higher T/C = longer survival
[1] = dose: 400.0 mg/kg/injection, schedule: Q04DX003 (ip), vehicle: saline
[2] = dose: 400.0 mg/kg/injection, schedule: Q01DX009 (ip), vehicle: saline with Tween-80

For C[n+]1ccc(Nc2ccc(NC(=O)c3ccc(Nc4cc[n+](C)c5ccc([N+](=O)[O-])cc45)cc3[N+](=O)[O-])cc2)cc1, the T/C (dose: 25.0 mg/kg/injection, schedule: Q01DX009 (ip), vehicle: saline) was 141 % of control [5 of 6 alive], the T/C (dose: 50.0 mg/kg/injection, schedule: Q01DX009 (ip), vehicle: saline) was 130 % of control and the T/C (dose: 100.0 mg/kg/injection, schedule: Q01DX001 (ip), vehicle: suspension in saline) was 126 % of control. For the same molecule, the T/C (dose: 100.0 mg/kg/injection, schedule: Q01DX009 (ip), vehicle: saline) was 137 and 143 % of control [5 of 6 alive], the T/C (dose: 100.0 mg/kg/injection, schedule: Q04DX002 (ip), vehicle: saline) was 97, 98, 109, 117 % of control and the T/C (dose: 100.0 mg/kg/injection, schedule: Q04DX003 (ip), vehicle: saline) was 127 % of control. The T/C (dose: 100.0 mg/kg/injection, schedule: Q04DX003 (ip), vehicle: suspension in saline) was 138 % of control, the T/C (dose: 200.0 mg/kg/injection, schedule: Q01DX001 (ip), vehicle: suspension in saline) was 126 and 127 % of control and the T/C (dose: 200.0 mg/kg/injection, schedule: Q01DX009 (ip), vehicle: saline) was 140 and 145 % of control. The T/C (dose: 200.0 mg/kg/injection, schedule: Q04DX002 (ip), vehicle: saline) was 109, 113, 117, 122 % of control, the T/C (dose: 200.0 mg/kg/injection, schedule: Q04DX003 (ip), vehicle: saline) was 139 % of control and the T/C (dose: 260.0 mg/kg/injection, schedule: Q04DX003 (ip), vehicle: saline) was 139 % of control. The survivor count (dose: 300.0 mg/kg/injection, schedule: Q01DX009 (ip), vehicle: saline) was 2 of 6, the T/C (dose: 300.0 mg/kg/injection, schedule: Q04DX003 (ip), vehicle: saline) was 141 % of control and the survivor count (dose: 400.0 mg/kg/injection, schedule: Q01DX009 (ip), vehicle: saline) was 3 of 6. The T/C (dose: 400.0 mg/kg/injection, schedule: Q04DX002 (ip), vehicle: saline) was 106, 117, 125, 126 % of control, the T/C [1] was 141 and 143 % of control and the survivor count (dose: 400.0 mg/kg/injection, schedule: Q04DX003 (ip), vehicle: suspension in saline) was 3 of 3.
Cc1ccccc1OC(=O)Nc1ccc(C(=O)O)c(O)c1 was tested, and the survivor count [2] was 0 of 6.
S=C=NCc1ccc(Cl)c(Cl)c1 was tested, and the survivor count (dose: 100.0 mg/kg/injection, schedule: Q01DX009 (ip), vehicle: saline with Tween-80) was 0 of 6, the survivor count (dose: 200.0 mg/kg/injection, schedule: Q01DX009 (ip), vehicle: saline with Tween-80) was 0 of 6 and the survivor count [2] was 0 of 6.
For NNC(=O)Cc1ccccc1, the survivor count [1] was 0 of 6.
With CCCCCCCCCCCCn1c(C)nc2ccccc21 the survivor count (dose: 12.0 mg/kg/injection, schedule: Q03HX024 (ip), vehicle: saline) was 9 of 10, the survivor count (dose: 18.0 mg/kg/injection, schedule: Q03HX024 (ip), vehicle: saline) was 7 of 10 and the survivor count (dose: 27.0 mg/kg/injection, schedule: Q03HX024 (ip), vehicle: saline) was 0 of 10. For the same molecule, the survivor count (dose: 40.0 mg/kg/injection, schedule: Q01DX009 (ip), vehicle: saline) was 7 of 10, the survivor count (dose: 40.0 mg/kg/injection, schedule: Q03HX024 (ip), vehicle: saline) was 0 of 10 and the survivor count (dose: 54.0 mg/kg/injection, schedule: Q01DX001 (ip), vehicle: saline) was 9 of 10. For the same molecule, the survivor count (dose: 54.0 mg/kg/injection, schedule: Q04DX003 (ip), vehicle: saline) was 7 of 10, the survivor count (dose: 61.0 mg/kg/injection, schedule: Q01DX009 (ip), vehicle: saline) was 0 of 10 and the survivor count (dose: 61.0 mg/kg/injection, schedule: Q03HX024 (ip), vehicle: saline) was 0 of 10. The survivor count (dose: 80.0 mg/kg/injection, schedule: Q01DX001 (ip), vehicle: saline) was 0 of 4 and 7 of 10, the survivor count (dose: 80.0 mg/kg/injection, schedule: Q04DX003 (ip), vehicle: saline) was 7 of 10 and the survivor count (dose: 120.0 mg/kg/injection, schedule: Q01DX001 (ip), vehicle: saline) was 4 of 10 and 6 of 10. For the same molecule, the survivor count (dose: 120.0 mg/kg/injection, schedule: Q04DX003 (ip), vehicle: saline) was 2 of 10 and 7 of 10, the survivor count (dose: 180.0 mg/kg/injection, schedule: Q01DX001 (ip), vehicle: saline) was 0 of 10 and the survivor count (dose: 180.0 mg/kg/injection, schedule: Q04DX003 (ip), vehicle: saline) was 1 of 10. The survivor count (dose: 270.0 mg/kg/injection, schedule: Q01DX001 (ip), vehicle: saline) was 0 of 10, the survivor count (dose: 270.0 mg/kg/injection, schedule: Q04DX003 (ip), vehicle: saline) was 1 of 10 and the survivor count (dose: 400.0 mg/kg/injection, schedule: Q01DX001 (ip), vehicle: saline) was 0 of 10. The survivor count [1] was 0 of 10, the survivor count (dose: 610.0 mg/kg/injection, schedule: Q01DX001 (ip), vehicle: saline) was 0 of 10 and the survivor count (dose: 610.0 mg/kg/injection, schedule: Q04DX003 (ip), vehicle: saline) was 0 of 10.
